PubChem BioAssay AID2417 (National Center for Advancing Translational Sciences (NCATS), 2010)
Screen size: about 140,000 compounds; about 4,300 (3.1%) were called active. Inconclusive means that the source gave no clear call. Such entries were picked first, then a sample of the others.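 The calls were made as follows: active = readout at or below -70, meaning at least 70% loss of cells showing the perinucleolar compartment, a nuclear body marking cancer cells; inconclusive = readout between -30 and a set limit; inactive = the rest.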

Assay: High Content Assay for Compounds that inhibit the Assembly of the Perinucleolar Compartment;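 also: plate controls were DMSO wells for no effect and camptothecin positive control wells for full effect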
Conditions: PC3M PTB-GFP, PNC prevalence imaging, 16 h; at 10 µM; hits give low values
Procedure, shortened: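 Read-out is percentage of cells bearing a perinucleolar compartment, from automated 20x imaging of fixed, Hoechst-stained PC3M PTB-GFP cells. Cells were seeded 4 h, then exposed 16 h to compound (23 nl of library stock) in duplicate plates.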
For COc1ccc(/C=C/C(=O)c2ccc[nH]2)c(OC)c1OC, the activity change (PNC), negative = inhibition was inconclusive: -34.8%. For O=c1c(F)cn(C2CCCO2)c(=O)n1Cc1c(F)cccc1Cl (stereo not given), the activity change (PNC), negative = inhibition was inconclusive: -36.5%. In the case of O=S(=O)(c1cccc2c(S(=O)(=O)N3CCCC3)cccc12)N1CCCC1, the activity change (PNC), negative = inhibition is reported as active: -129%. For Cc1ccc(C(=O)NC(C)c2ccccc2)cc1Br (stereo not given), the activity change (PNC), negative = inhibition was inconclusive: -75.8%. In the case of Cc1cc([N+](=O)[O-])nn1CCCC(=O)N1CCN(c2ccccc2)CC1, the activity change (PNC), negative = inhibition is reported as inconclusive: -30.8%. For Cc1cccc(Cl)c1OCCCCn1ccnc1, the activity change (PNC), negative = inhibition was inconclusive: -32.7%. In the case of Nc1cc(=O)[nH]c(SCC(=O)N2CCc3ccccc3C2)n1, the activity change (PNC), negative = inhibition is reported as inconclusive: -32%. With Cc1occc1C(=O)NNC(=O)c1ccc(F)cc1 the activity change (PNC), negative = inhibition was inconclusive: -36.1%. For CCN(CC)CCCNC(=O)C1c2ccccc2C(=O)N(C)C1c1ccc(OC)cc1 (stereo not given), the activity change (PNC), negative = inhibition was inactive: -21.3%. In the case of COc1ccc(CNC(=O)C(c2ccncc2)N(C(=O)Cc2cccs2)c2ccc(C)cc2)cc1 (stereo not given), the activity change (PNC), negative = inhibition is reported as inconclusive: -72.7%. For Cc1sc(NC(=O)CN(Cc2ccccc2)C(=O)C(C)C)c(C(N)=O)c1C, the activity change (PNC), negative = inhibition was inconclusive: -30.3%. For CNc1nnc(-c2cccc(N(C)C)c2)s1, the activity change (PNC), negative = inhibition was inconclusive: -48.2%. With CCc1cccc(C)c1NC(=O)COC(=O)c1c2c(nc3ccccc13)/C(=C\c1cccs1)CCC2 the activity change (PNC), negative = inhibition was inconclusive: -45.8%. With Cc1ccc(NC(=O)c2cccs2)cc1S(=O)(=O)Nc1cccc(Cl)c1 the activity change (PNC), negative = inhibition was inconclusive: -36.8%. For CC1CCN(c2ncnc3ccccc23)CC1, the activity change (PNC), negative = inhibition was inactive: 243%. In the case of Cc1ccc(C)c(NS(=O)(=O)c2ccc3c(c2)Cc2cc(S(=O)(=O)Nc4cc(C)ccc4C)ccc2-3)c1, the activity change (PNC), negative = inhibition is reported as inactive: 33.8%. With CCn1c(CSc2nnc(-c3ccc4c(c3)OCO4)o2)nc2cc(S(=O)(=O)N(C)C)ccc21 the activity change (PNC), negative = inhibition was inactive: -25.8%. In the case of Cc1n[nH]c(C)c1CCC(=O)N/N=C/C=C/c1ccccc1, the activity change (PNC), negative = inhibition is reported as inconclusive: -61.5%. With Cc1cc(C)n(-c2ccc(Cl)c(C(=O)OCC(N)=O)n2)n1 the activity change (PNC), negative = inhibition was inconclusive: -46.3%. With Cc1ccc2nc(SCC(=O)Nc3cc(C(F)(F)F)ccc3N3CCOCC3)[nH]c2c1 the activity change (PNC), negative = inhibition was active: -104%. With Cc1ccc(-n2c(N)c(C#N)c(-c3ccc(Cl)cc3)c(C#N)c2=O)cc1 the activity change (PNC), negative = inhibition was inactive: 7.45%. In the case of CCOC(=O)c1[nH]c(C)c(C(=O)c2ccc(C)cc2)c1C, the activity change (PNC), negative = inhibition is reported as inconclusive: -61.9%. In the case of c1ccc(-c2c(-c3ccccc3)n(Cc3ccco3)c3ncnc(NCCCn4ccnc4)c23)cc1, the activity change (PNC), negative = inhibition is reported as inactive: -16%. In the case of O=C(NC1CCCCCC1)c1cccc(N2CCCC2=O)c1, the activity change (PNC), negative = inhibition is reported as inconclusive: -59.8%. In the case of COc1ccccc1C1/C(=C(/O)c2ccc(C)cc2)C(=O)C(=O)N1Cc1ccco1 (stereo not given), the activity change (PNC), negative = inhibition is reported as inconclusive: -48.1%. With O=C(COc1ccc(Cl)cc1)OCC(=O)N1CCCc2ccccc21 the activity change (PNC), negative = inhibition was inactive: -14.8%. For Cc1nc(C)c(C(=O)NNC(=O)c2ccc(Br)cc2)s1, the activity change (PNC), negative = inhibition was inconclusive: -64.3%. For C=CCc1ccc(OCCCN2CCCC(C)C2)c(OC)c1 (stereo not given), the activity change (PNC), negative = inhibition was inconclusive: -50.5%. In the case of Cc1ccc(S(=O)(=O)N(C)C)cc1NC(=O)CCNC(=O)c1ccccc1Cl, the activity change (PNC), negative = inhibition is reported as inconclusive: -40.1%. With Cc1cc(S(=O)(=O)N2CCCC2)ccc1OCC(=O)NCc1ccco1 the activity change (PNC), negative = inhibition was inactive: -18.1%. For N#Cc1c2c(c(-n3cnc4ccccc43)n3c1nc1ccccc13)CCC2, the activity change (PNC), negative = inhibition was inactive: -25.3%. For Cc1noc2ncnc(Sc3ccccc3Cl)c12, the activity change (PNC), negative = inhibition was inactive: -23.7%. For Cc1ccc(C(=O)c2c[nH]c3c(F)cc(F)cc3c2=O)cc1, the activity change (PNC), negative = inhibition was inconclusive: -37.2%. With CC1=C(C(=O)N(C)Cc2ccccc2)C2(CCC(C)CC2)OC1=O (stereo not given) the activity change (PNC), negative = inhibition was inconclusive: -32.8%. For Cc1cc(C)n(-c2nc(SCCN(C)C)c3c4c(sc3n2)COC(C)(C)C4)n1, the activity change (PNC), negative = inhibition was inconclusive: -52%. For Cn1c(CCNC(=O)c2ccco2)nc2cc(NC(=O)C3CCCCC3)ccc21, the activity change (PNC), negative = inhibition was active: -114%. In the case of CCCNC(=O)COc1ccc(S(=O)(=O)Nc2ccc(C)cc2)cc1, the activity change (PNC), negative = inhibition is reported as inconclusive: -44.9%. With CC(C)n1c(NCCc2ccccc2)nc2c1c(=O)n(C)c(=O)n2C the activity change (PNC), negative = inhibition was inactive: -16.3%. For CC(=O)Nc1cccc(C(=O)/C=C/c2ccco2)c1, the activity change (PNC), negative = inhibition was inactive: 22.4%. For CCCC(C(=O)NCc1ccccc1)N(C(=O)Cn1nnc(-c2cccs2)n1)c1ccc2c(c1)OCCO2 (stereo not given), the activity change (PNC), negative = inhibition was inconclusive: -46%. In the case of COCC(N)(c1ccccc1)c1nc2ccccc2n1C (stereo not given), the activity change (PNC), negative = inhibition is reported as inconclusive: -41.8%. In the case of Cc1cc(C(=O)N/N=C/c2cccc([N+](=O)[O-])c2)c2ccccc2n1, the activity change (PNC), negative = inhibition is reported as inactive: 0.547%. For CC#CCCCC(=O)Nc1ccccc1C(=O)O, the activity change (PNC), negative = inhibition was inconclusive: -37.6%. For Cc1ccc(NC(=O)CSC2=C(C#N)C(c3ccco3)C3=C(CC(C)(C)CC3=O)N2)cc1 (stereo not given), the activity change (PNC), negative = inhibition was inactive: -25.2%. For O=C1CCCCC1C(Nc1ccc(Cl)cc1)c1ccccc1 (stereo not given), the activity change (PNC), negative = inhibition was inconclusive: -36%. For CCn1c(SCC(=O)NCc2ccccc2)nc2ccccc2c1=O, the activity change (PNC), negative = inhibition was inactive: -0.981%. In the case of CCOC(=O)C1=C(c2ccccc2)NC(=O)NC1c1ccc(OCC#N)c(OC)c1 (stereo not given), the activity change (PNC), negative = inhibition is reported as inconclusive: -48.6%. With CC(Oc1ccc(Cl)cc1Cl)C(=O)NC1CCSC1=O (stereo not given) the activity change (PNC), negative = inhibition was inactive: 11.9%. In the case of COC(=O)c1ccccc1NC(=O)C1CC(=O)N(c2ccc(C)c(C)c2)C1 (stereo not given), the activity change (PNC), negative = inhibition is reported as inconclusive: -53.1%. With CCn1c(SCc2nc3scc(-c4ccccc4)c3c(=O)[nH]2)nnc1-c1ccc(Cl)cc1 the activity change (PNC), negative = inhibition was inconclusive: -57.2%. For Cc1cccc(NC(=O)CC2C(=O)NCCN2C(=S)Nc2ccccc2)c1 (stereo not given), the activity change (PNC), negative = inhibition was inactive: 15.9%. With CC(C)(C)c1ccc(NC(=O)COc2ccc(-n3ccnc3)cc2)cc1 the activity change (PNC), negative = inhibition was inconclusive: -43%. For CC1CCN(C(=O)CSc2nnc(CN3CCOCC3)n2-c2ccccc2)CC1, the activity change (PNC), negative = inhibition was inconclusive: -57%. For CCN=C1SC(C(=O)Nc2cccc(OCC)c2)CC(=O)N1CC (stereo not given), the activity change (PNC), negative = inhibition was inconclusive: -73.1%. In the case of CCOc1cc(OCC)cc(C(=O)Nc2cccnc2)c1, the activity change (PNC), negative = inhibition is reported as active: -91.3%. In the case of CCOc1ccc(Oc2nc(C)cc(OC)n2)nn1, the activity change (PNC), negative = inhibition is reported as inconclusive: -69.1%. For Cc1ccc(S(=O)(=O)Cc2ccc(C(=O)N3CCN(c4ccccn4)CC3)o2)cc1, the activity change (PNC), negative = inhibition was inconclusive: -72.4%. In the case of Cc1cc(-c2ccccc2)n(-c2ccc(C(N)=O)cc2)n1, the activity change (PNC), negative = inhibition is reported as inactive: -16.5%. For CCOc1ccc(C(=O)NCCn2cc(SCC(=O)Nc3cc(C)on3)c3ccccc32)cc1, the activity change (PNC), negative = inhibition was inconclusive: -41.4%. For NC(=O)C1CCN(c2ccc(C(F)(F)F)cc2[N+](=O)[O-])CC1, the activity change (PNC), negative = inhibition was inactive: 24.4%. With O=C1C2C3C=CC(C3)C2C(=O)N1CCCO (stereo not given) the activity change (PNC), negative = inhibition was inactive: 321%. With O=C(COC(=O)Cc1ccsc1)NCC1CCCCC1 the activity change (PNC), negative = inhibition was active: -89.7%. With Cc1cccc(NC(=S)N(Cc2cccs2)Cc2cc3cc(C)ccc3[nH]c2=O)c1 the activity change (PNC), negative = inhibition was inconclusive: -46.7%. In the case of CCC(CO)n1c(SCc2cc(=O)oc3cc(C)ccc23)nc2ccccc2c1=O (stereo not given), the activity change (PNC), negative = inhibition is reported as inconclusive: -30.5%. In the case of CC1Cc2nc(SCC(=O)Nc3ccc4c(c3)OCCO4)n(C)c(=O)c2S1 (stereo not given), the activity change (PNC), negative = inhibition is reported as inconclusive: -73%. In the case of O=C(N/N=C/c1ccc([N+](=O)[O-])s1)c1ccccc1Br, the activity change (PNC), negative = inhibition is reported as inactive: 51.3%. For Cc1ccccc1CN(C)CC(=O)Nc1ccccc1-c1ccccc1, the activity change (PNC), negative = inhibition was inconclusive: -37%. For CC(=O)Nc1cc(S(=O)(=O)Nc2ccccc2C)c(C)cc1C, the activity change (PNC), negative = inhibition was inactive: 22.9%. With CNCCOc1ccccc1C(C)(C)C the activity change (PNC), negative = inhibition was inconclusive: -44%. With Cn1c(N)c(C(=O)COC(=O)CSc2ccccc2)c(=O)n(C)c1=O the activity change (PNC), negative = inhibition was inconclusive: -33.7%. In the case of CCOC(=O)/C=C/S(=O)(=O)c1ccc(NC(C)=O)cc1, the activity change (PNC), negative = inhibition is reported as inactive: -1.93%. With COc1ccccc1C1/C(=C(/O)c2ccccc2)C(=O)C(=O)N1CCO (stereo not given) the activity change (PNC), negative = inhibition was inconclusive: -55.9%. For CCOC(=O)c1cccc(NC(=O)CSc2nnc(-c3cccnc3)n2CC)c1, the activity change (PNC), negative = inhibition was inconclusive: -41.7%. In the case of COc1cccc(Nc2nc(CN3CCOCC3)nc3sc4c(c23)CCCC4)c1, the activity change (PNC), negative = inhibition is reported as inactive: -4.9%. For CC1=C(C(=O)OCC(C)C)C(c2cccc(F)c2)N2C(=O)C(C)SC2=N1 (stereo not given), the activity change (PNC), negative = inhibition was inconclusive: -38.8%. In the case of O=C(CCc1ccccc1)Nc1ccc(NC(=O)c2ccco2)cc1, the activity change (PNC), negative = inhibition is reported as inconclusive: -36.8%. In the case of Oc1ccc(Br)cc1C=Nc1ccc2[nH]ncc2c1, the activity change (PNC), negative = inhibition is reported as inactive: 18.8%. For CSc1ncccc1C(=O)Nc1ccc(S(=O)(=O)Nc2nccs2)cc1, the activity change (PNC), negative = inhibition was inconclusive: -38.4%. In the case of Cc1ccc2nc(SCc3ccc([N+](=O)[O-])cc3)nc(C)c2c1, the activity change (PNC), negative = inhibition is reported as inconclusive: -32.5%. With Cc1ccc(NC(=S)N(C)Cc2cn(C)c3ccccc23)cc1 the activity change (PNC), negative = inhibition was inconclusive: -37.2%. With CN(C)CCNC(=O)c1cc2ccccc2oc1=O the activity change (PNC), negative = inhibition was inconclusive: -32.1%. With Cc1cc(-c2ccccc2)nc(N/N=C/c2ccco2)n1 the activity change (PNC), negative = inhibition was inconclusive: -66.7%. With Cc1cc(O)c(-c2n[nH]c3c2C(c2cccc(O)c2)N(Cc2cccnc2)C3=O)cc1Cl (stereo not given) the activity change (PNC), negative = inhibition was inconclusive: -62.8%. In the case of Cc1noc(C)c1C(=O)Nc1ccc(F)c(F)c1, the activity change (PNC), negative = inhibition is reported as inconclusive: -38.9%. In the case of O=C(O)c1ccc2nc(C(F)(F)F)[nH]c2c1, the activity change (PNC), negative = inhibition is reported as inconclusive: -44.6%. In the case of COC(=O)c1ccc(NC(=O)C(=O)N2CCCC2)cc1, the activity change (PNC), negative = inhibition is reported as inconclusive: -43.2%. In the case of Cc1ccc(-c2nnn(CC(=O)N(Cc3cccs3)C(C(=O)NC3CCCC3)c3ccco3)n2)o1 (stereo not given), the activity change (PNC), negative = inhibition is reported as inactive: 18.7%. With S=C(NCCSCc1ccc(Cl)cc1Cl)Nc1ccccc1 the activity change (PNC), negative = inhibition was inactive: 67.7%. With COc1ccccc1NC(=O)CSC(N)=O the activity change (PNC), negative = inhibition was inactive: 21.2%. For CCOc1ncccc1C(=O)OCC(=O)Nc1ccc(C)c(S(=O)(=O)N2CCOCC2)c1, the activity change (PNC), negative = inhibition was inconclusive: -43.1%.
